Assay results taken from paper PMC5693111, “Small molecule Photoregulin3 prevents retinal degeneration in the Rho^P23H mouse model of retinitis pigmentosa” (eLife, 2017).
Results are given in words; binding and its absence hold for the method and conditions named. Binding seen in cells or lysates may run through a third protein. Some results given as binding are weak or reduced against the parent protein; the word gives no strength.

By UniProt entry, the sequences of proteins in these tests, tags left out.
UniProt Q9Y5X4: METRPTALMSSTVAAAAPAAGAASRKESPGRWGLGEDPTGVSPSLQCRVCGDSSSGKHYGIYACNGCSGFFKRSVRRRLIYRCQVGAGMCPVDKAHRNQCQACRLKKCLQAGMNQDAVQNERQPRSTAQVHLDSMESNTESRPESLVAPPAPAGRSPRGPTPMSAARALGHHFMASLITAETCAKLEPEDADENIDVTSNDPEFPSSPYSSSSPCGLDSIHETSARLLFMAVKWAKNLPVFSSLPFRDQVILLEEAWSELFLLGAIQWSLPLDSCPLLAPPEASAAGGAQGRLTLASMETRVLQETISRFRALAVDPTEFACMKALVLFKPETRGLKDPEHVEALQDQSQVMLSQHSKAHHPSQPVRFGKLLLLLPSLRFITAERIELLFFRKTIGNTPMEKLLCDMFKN
UniProt P54845: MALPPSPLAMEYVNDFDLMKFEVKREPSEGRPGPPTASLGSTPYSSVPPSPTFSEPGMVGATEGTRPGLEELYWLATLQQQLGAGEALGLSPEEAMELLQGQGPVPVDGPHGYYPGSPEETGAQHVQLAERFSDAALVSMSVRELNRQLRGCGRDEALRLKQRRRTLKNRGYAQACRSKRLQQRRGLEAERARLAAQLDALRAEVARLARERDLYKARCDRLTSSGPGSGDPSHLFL

Molecular target: NR2E3 (Homo sapiens, UniProt Q9Y5X4)
Assay: co-IP; HEK293 cells co-transfected with NR2E3 and NRL, treated with DMSO or 1 uM PR3 for 2 days; lysates (25 mM Tris-HCl pH 7.5, 150 mM NaCl, 1 mM EDTA, 1% Triton X-100, 5% glycerol) immunoprecipitated with anti-Nr2e3 antibody on Dynabeads overnight at 4°C; Western blot with anti-Nrl

binding: binds
Substance: NRL (from UniProt P54845 1-237)
